Data reported in patent US20140037606A1, “CELL-BASED, ANTI-CANCER VACCINES” (priority 2012, published 2014).
At least one compound was matched to its structure with a doubt left.

What was measured:
bone marrow-derived DCs [1] = test: DC viability/lifespan by FACS of 7-AAD staining of CD11c+ cells; type: cell-based, mouse; details: treatment alone, no LPS; data not shown
Procedure: (§1) FIG. 1. Inhibition of mTOR expression prolongs DC lifespan and promotes expression of costimulatory molecules CD40 and CD86. (A) DCs were pulsed with Pam2CSK4, LPS, R848, or CpG for 6 hours and then washed and cultured in complete medium. Cell viability was monitored daily by FACS analysis of 7-AAD staining of CD11c^+ cells. (B) Western blot for mTOR and β-actin protein in Luciferase hpRNA (Luc^hp) or mTOR hpRNA (mTOR^hp)-transduced DCs. (C) DCs were stimulated with media alone, LPS, or rapamycin+LPS for 30 minutes. Cells were subsequently fixed and stained for phosphorylated S6 protein as a molecular readout for mTOR activation and analyzed by FACS. (D) Luc^hp and mTOR^hp-transduced DCs were left untreated or stimulated with LPS and monitored daily for cell viability by analysis of 7-AAD staining of CD11c^+ cells. (E) Luc^hp or mTOR^hp DCs were cultured with or without LPS for 24 hours and analyzed by FACS for CD40 and CD86 expression. […]
(§2) FIG. 2. […] Cells were monitored daily for cell viability as described for FIG. 1. […] (B) DCs were unstimulated or stimulated with LPS, RAP+LPS, or KU+LPS and analyzed by FACS 24 hours later for CD40 and CD86 expression. […] (C) DCs were treated as in (B) and analyzed daily by FACS for CD40 and CD86 expression gated on live CD11c^+ cells. […]

LPS-activated DCs = test: Cytokines in DC supernatants by Cytometric Bead Array; type: cell-based, mouse; details: supernatants 24 hours
OT-I CD8+ T cells = test: In vitro T-cell responses: DC co-culture with OT-I CD8+ T cells; type: cell-based, mouse; details: DCs pulsed with ovalbumin in the presence of LPS and rapamycin
human myeloid DCs = test: Costimulatory molecule expression in human myeloid DCs by FACS; type: cell-based; details: R848 1 μg/mL, inhibitors 100 nM
Procedure: FIG. 3. Pharmacological inhibition of mTOR augments the duration of costimulatory molecule expression in human myeloid DCs. (A) Human myeloid DCs were either unstimulated or stimulated with R848 in the presence or absence of rapamycin (RAP) or KU. CD40 and CD86 expression was analyzed by FACS. Day 4 costimulatory molecule expression from a representative donor (5430) is depicted. (B) DCs were treated as in (A) and analyzed daily by FACS for CD40 and CD86 expression. (C) DCs were treated as in (A) and analyzed for viability at indicated times by FACS analysis of 7-AAD staining. For each treatment, data from 4-6 individual donors is depicted.
Human DC Culture: Human myeloid DCs were isolated from human blood using MACS positive selection beads. In brief, filters from hospital blood donors were generously donated by the CVPH Medical Center in Plattsburgh, N.Y. Blood cells were obtained by reverse flushing filters in sterile HBSS. PBMCs were obtained by centrifugation of blood samples over Ficoll-Paque Plus (density 1.077 g/mL) (GE Healthcare). Myeloid DCs were enriched using the BDCA-1 Positive Selection DC Islation Kit (Miltenyi Bioscience) per the manufacturer's instructions. […] At indicated times, DCs were harvested and analyzed by FACS for maturation markers.

bone marrow-derived DCs [2] = test: Costimulatory molecule expression on DCs by FACS; type: cell-based, mouse
Procedure: as §1, §2

For `CO[C@H]1C[C@@H]2CC[C@@H](C)[C@@](O)(O2)C(=O)C(=O)N2CCCC[C@H]2C(=O)O[C@H]([C@H](C)C[C@@H]2CC[C@@H](O)[C@H](OC)C2)CC(=O)[C@H](C)/C=C(\C)[C@@H](O)[C@@H](OC)C(=O)[C@H](C)C[C@H](C)/C=C/C=C/C=C/1C` [rapamycin], the “viability of unstimulated DCs” value (bone marrow-derived DCs [1]) was “did not impact”, the IL-10 production (LPS-activated DCs) was “inhibited” and the “production of IL-12p70” value (LPS-activated DCs) was “remained unaffected”. The “production of TNFα” value (LPS-activated DCs) was “remained unaffected”, the “ability to process and present antigen to CD8+ and CD4+ T cells in vitro” value (OT-I CD8+ T cells) was “highly competent” and the “costimulatory molecule expression (CD40, CD86) in response to R848” value (human myeloid DCs) was “enhanced”. The “duration of expression of CD40 and CD86 in response to LPS” value (bone marrow-derived DCs [2]; analyzed daily, live CD11c+ cells) was “prolonged” and the “percentage of DCs expressing CD40 and CD86” value (bone marrow-derived DCs [2]; during LPS stimulation, 24 hours, inhibitors 100 nM) was “increase”.
